# Literature values, collected in patent US4324894A, “Aminoisoquinoline derivatives” (Egyt Gyogyszervegyeszeti Gyar, priority 1979, dated 1982).
# At least one compound was matched to its structure with a doubt left.
# System: thrombocyte aggregation
# Details: described in published German Pat. No. 2,420,012; cited from earlier work
smiles,measurement,value
c1ccc2c(N3CCOCC3)nc(N3CCNCC3)cc2c1 [1-Morpholinyl-3-piperazinylisoquinoline],inhibits the thrombocyte aggregation,inhibits the thrombocyte aggregation
